From article PMC10847306 (Frontiers in Cellular and Infection Microbiology, 2024)

Assay: peptide made by a vendor
Details: whole synthesis, RP-HPLC

Question: With MAKRRKKAKKKAKKAKKRRRRR-NH2 as the substance, how does the “final HPLC purity” value (T1 r3) read?
Answer: 95.44%

Question: And the “final HPLC purity” value (run 1)?
Answer: greater than 95%
